Experimental data published in PubChem BioAssay AID504834 (National Center for Advancing Translational Sciences (NCATS), 2011).
Among all 320,000 compounds or so, about 22,000 (6.9%) were called active. The shares of active, inactive and inconclusive entries below differ from those in the screen. Calls come from the whole dose curve; as a rule, active = well fitted inhibition curve with a large enough effect; inconclusive = small, poorly fitted or top-dose-only effect, or another doubt; inactive = no such curve, though single readings can be large or run the other way. A potency beside an inconclusive call is a rough fit, not a confirmed value.

assay: Primary qHTS for delayed death inhibitors of the malarial parasite plastid, 96 hour incubation; settings: P. falciparum luciferase reporter growth; series mostly up to 28.7 µM; activity change, negative = inhibition: at the top concentration
In short: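 P. falciparum expressing integrated firefly luciferase grown in erythrocytes (2% hematocrit, 0.05% parasitemia final) with compounds for 96 hours at 37 C, 5% CO2. Growth inhibition read as loss of luminescence after adding luciferase detection reagent.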
% is set by controls: 0 for no effect and ±100 for the full control effect; potency is the fitted concentration of half-maximal effect.

Row | SMILES | Potency | activity change, negative = inhibition
1 | COC(=O)C1CCN(C(=O)NC(C)(C)C)CC1 | inconclusive: 10.4 µM [inhibitor, single point] | –
2 | COc1ccccc1OCCNC(=O)c1cccc(S(=O)(=O)NCc2ccccc2)c1 | inconclusive: 18.5 µM [inhibitor, single point] | –
3 | COc1ccc(CCNS(=O)(=O)CCNC(=O)c2ccc(OC)cc2)cc1 | – | inactive: 25.9%
4 | COCCn1c(-c2ccc(OC)cc2)c(-c2ccc(OC)cc2)oc1=O | active: 13.1 µM | –
5 | COC1(OC)N=C(N)C2(C#N)C(c3ccc4c(c3)OCO4)C12C#N (stereo not given) | inconclusive: 20.8 µM [inhibitor, partial curve, poor fit] | –
6 | O=C(NCc1ccccc1)c1cccc(NS(=O)(=O)c2cccc3cccnc23)c1 | – | inactive: 3.85%
7 | C=CCn1c(SCC(C)=O)nc2scc(-c3ccco3)c2c1=O | – | inactive: -3.04%
8 | CC1CCN(CC(=O)Nc2ccc(N3CCCCCC3)cc2)CC1 | inconclusive: 1.85 µM [inhibitor, full curve, poor fit] | –
9 | Cc1cc(C)n(CC(=O)NNC(=O)c2ccc(NC(=O)CC#N)cc2)n1 | – | inactive: 7.12%
10 | CCn1c(SC)nnc1C1CCCN(CC(=O)Nc2ccccc2N2CCOCC2)C1 (stereo not given) | – | inactive: 1.5%
11 | COc1ccc(N(C(C)C(=O)NN=C2CCCCCCC2)S(C)(=O)=O)cc1 (stereo not given) | inconclusive: 16.5 µM [inhibitor, partial curve, poor fit] | –
12 | Cc1ccc2c(c1)nnn2C1CCN(S(=O)(=O)c2cccc(S(=O)(=O)N(C)C)c2)CC1 | inconclusive: 1.31 µM [inhibitor, full curve] | –
13 | COc1ccc(-n2nnc3c(=O)n(CC(=O)N4CCCc5ccccc54)cnc32)cc1 | inconclusive: 11.7 µM [inhibitor, single point] | –
14 | O=C(Nc1nccs1)C1CCN(S(=O)(=O)c2ccc(F)cc2)CC1 | inconclusive: 10.4 µM [inhibitor, single point] | –
15 | COc1cc(-c2n[nH]c(=S)n2C(C)c2ccccc2)cc(OC)c1OC (stereo not given) | inconclusive: 1.47 µM [inhibitor, partial curve, poor fit] | –
16 | O=C(c1ccco1)N(CCC(c1ccccc1)c1ccco1)Cc1ccc(F)cc1 (stereo not given) | inconclusive: 18.5 µM [inhibitor, single point] | –
17 | CCn1c(SCC(=O)Nc2nonc2C)nnc1-c1ccco1 | inconclusive: 10.4 µM [inhibitor, partial curve, poor fit] | –
18 | Cc1cc(=O)oc2c(CN3CCC(C)CC3)c(O)c(Cl)cc12 | inconclusive: 11.7 µM [inhibitor, partial curve] | –
19 | Cc1cccc(CNC(=O)Cn2ccc3cc(S(=O)(=O)N4CCCC4)ccc32)c1 | inconclusive: 18.5 µM [inhibitor, single point] | –
20 | CCc1ccccc1NC(=O)CCS(=O)(=O)c1ccc(Br)cc1 | – | inactive: 29.2%
21 | O=C(Nc1nncs1)C12CC3CC(CC(Cl)(C3)C1)C2 | – | inactive: -8.15%
22 | CCOC(=O)c1[nH]c(C)c(CN(CCc2ccccc2)S(C)(=O)=O)c1C | – | inactive: 17.3%
23 | O=C(/C=C/c1ccco1)c1ccc(NC(=O)C23CC4CC(CC(C4)C2)C3)cc1 | inconclusive: 11.7 µM [inhibitor, single point] | –
24 | Cc1cccc2c1N(CCOc1ccccc1Cl)C(=O)C2=O | inconclusive: 7.38 µM [inhibitor, partial curve, poor fit] | –

Row | SMILES | Potency | activity change, negative = inhibition
25 | CCCCCC(=O)Nc1ncc2c(n1)CC(c1cccs1)CC2=O (stereo not given) | inconclusive: 1.17 µM [inhibitor, full curve] | –
26 | CCOC(=O)c1sc(NC(=O)CSc2n[nH]c(-c3ccccc3)n2)c(C#N)c1C | inconclusive: 1.65 µM [inhibitor, full curve, poor fit] | –
27 | Nn1cnnc1N/N=C/c1ccccc1C(F)(F)F | inconclusive: 4.15 µM [inhibitor, partial curve, poor fit] | –
28 | Cn1cc(CN2CCCC(CO)(Cc3ccccc3)C2)c2ccccc21 (stereo not given) | – | inactive: -16.9%
29 | CSc1ccc(CCNC(=O)CSc2ccsc2[N+](=O)[O-])cc1 | inconclusive: 0.131 µM [inhibitor, full curve, poor fit] | –
30 | COc1cccc(-c2cc(C(=O)N/N=C/c3ccco3)c3ccccc3n2)c1 | inconclusive: 18.5 µM [inhibitor, partial curve, poor fit] | –
31 | CCCn1c(SCC(=O)Nc2ccc(OC)cc2[N+](=O)[O-])n[nH]c1=O | inconclusive: 10.4 µM [inhibitor, single point] | –
32 | CCC1(c2ccc(F)cc2)NC(=O)N(CC(=O)Nc2ccccc2C)C1=O (stereo not given) | – | inactive: -12.8%
33 | CCSc1nc2ccccc2n1CC(=O)N1CCCCC1 | – | inactive: 47.5%
34 | Cc1cccc(OCCCCCn2ccnc2)c1C | inconclusive: 18.5 µM [inhibitor, single point] | –
35 | O=C(/C=C/c1ccccc1)NC(NC(=S)Nc1ccc(Cl)cc1)C(Cl)(Cl)Cl (stereo not given) | – | inactive: 1.43%
36 | O=C(Nc1ncccc1O)c1ccc2c(c1)OCCO2 | inconclusive: 5.86 µM [inhibitor, partial curve, poor fit] | –
37 | COc1ccc(C[C@@H]2CN3C(=NC[C@@H]3C)N2C[C@H](C)NC(=O)CCC2CCCCC2)cc1 | inconclusive: 11.7 µM [inhibitor, single point] | –
38 | O=C(c1ccco1)N1CCN(Cc2ccccc2Br)CC1 | inconclusive: 10.4 µM [inhibitor, single point] | –
39 | CCN(CC)CCCn1c2c(c(SCC(=O)N3CCCc4ccccc43)nc1=O)CCC2 | inconclusive: 11.7 µM [inhibitor, single point] | –
40 | Cn1nc(-c2ccc(Cl)cc2)c2cc(C(=O)NC3CC3)sc21 | – | inactive: 14.3%
41 | Cn1c(/C=C/c2ccccc2)nc2ccccc21 | – | inactive: 48.2%
42 | CN1C(=O)N(C)C(=O)C2(Cc3ccccc3N3CCCC32)C1=O (stereo not given) | – | inactive: 0.226%
43 | Cc1ccc(C2=C(c3ccc([N+](=O)[O-])cc3)C(=O)OC2)cc1C | inconclusive: 16.5 µM [inhibitor, partial curve, poor fit] | –
44 | COc1ccc(NC(=O)C2CCC(CNS(=O)(=O)c3cccs3)CC2)cc1 (stereo not given) | active: 13.1 µM | –
45 | CCOC(=O)/C(=N\Nc1ccc(OC)cc1)c1csc(Nc2ccccc2)n1 | active: 10.4 µM | –
46 | CN(C)c1nc(N)nc(/C(C#N)=C/C2CC3C=CC2C3)n1 (stereo not given) | – | inactive: -0.569%
47 | COc1ccc2cc(CCNC(=O)c3ccc(S(=O)(=O)N4CCOCC4)cc3)c(=O)[nH]c2c1 | inconclusive: 2.33 µM [inhibitor, full curve] | –
48 | COc1ccc(CNC(=O)C2CCCN(C(=O)Nc3ccc(OC)cc3)C2)cc1 (stereo not given) | – | inactive: -3.38%

Row | SMILES | Potency | activity change, negative = inhibition
49 | c1ccc2[nH]c(CSc3ncnc4c3oc3ccccc34)nc2c1 | – | inactive: 43.3%
50 | CC(=O)c1cccc(NC(=O)NC2CCCc3ccccc32)c1 (stereo not given) | inconclusive: 9.28 µM [inhibitor, single point] | –
51 | CCOc1ccc(C2C(C#N)=C(N)N(c3sc4c(c3C#N)CCCC4)C3=C2C(=O)CCC3)cc1 (stereo not given) | inconclusive: 3.7 µM [inhibitor, full curve] | –
52 | O=C(Nc1ccccc1-c1nnn(CC(=O)N2CCOCC2)n1)c1ccc(F)cc1 | – | inactive: 19.9%
53 | COc1cc(C=O)ccc1OCC(=O)N1CCCC1 | active: 9.28 µM | –
54 | C=COCCn1c(C)c(C(C)=O)c2cc(O)ccc21 | inconclusive: 20.8 µM [inhibitor, partial curve, poor fit] | –
55 | CC(C)(C)CNC(=O)[C@]1(C)CCC[C@@]2(C)C3CC[C@@]4(C)C[C@]3(CCC21)CC4=O (stereo not given in full) | inconclusive: 16.5 µM [inhibitor, single point] | –
56 | CCC1CCCCN1CCCNC(=O)CS(=O)Cc1nc(-c2ccc(OC)c(OC)c2)oc1C (stereo not given) | inconclusive: 11.7 µM [inhibitor, single point] | –
57 | COc1ccc(-c2ccc(CNCc3ccccn3)o2)cc1Cl | inconclusive: 18.5 µM [inhibitor, single point] | –
58 | COc1ccc(-n2c(SCC(=O)Nc3cc(C)on3)nc3c(c2=O)SCC3)cc1OC | inconclusive: 18.5 µM [inhibitor, single point] | –
59 | CCOC(=O)c1cc(-c2ccc(C)cc2)n(CCC(=O)N2CCN(c3ccccn3)CC2)c1C | inconclusive: 18.5 µM [inhibitor, single point] | –
60 | CCOC(=O)/C(=N\Nc1ccccc1Cl)N1CCN(Cc2ccccc2)CC1 | inconclusive: 18.5 µM [inhibitor, single point] | –
61 | COc1ccc(-c2nn(C)c(=O)[nH]2)cc1 | – | inactive: 48.4%
62 | Cc1c(-c2nc(N)nc(Nc3ccccc3)n2)oc2ccccc12 | inconclusive: 16.5 µM [inhibitor, single point] | –
63 | CCOC(=O)[C@H]1[C@H]2COc3ccc(Cl)cc3[C@@H]2N2C(=O)c3cc(Cl)ccc3NC(=O)[C@@]12C | active: 10.4 µM | –
64 | COc1ccc(S(=O)(=O)N2CCN(C(=O)c3ccccn3)CC2)cc1 | – | inactive: -1.45%
65 | Cc1cccc(-n2cnc(C(=O)NNC(=S)Nc3ccc(Cl)cc3)c2)n1 | inconclusive: 9.28 µM [inhibitor, single point] | –
66 | COc1ccc(/C=C2\SC(=O)N(CCC(=O)NCCCn3ccnc3)C2=O)cc1 | inconclusive: 18.5 µM [inhibitor, single point] | –
67 | CCOc1ccc(CCNC(=O)CS(=O)Cc2nc(-c3ccc(C)cc3)oc2C)cc1 (stereo not given) | – | inactive: 6.64%
68 | COC(=O)C1=CN(c2cccc(C)c2)C=C(C(=O)OC)C1c1cc(OC)c(O)c([N+](=O)[O-])c1 | inconclusive: 18.5 µM [inhibitor, single point] | –
69 | O=C1CCCCN1CCCC(=O)N1CCCC(Nc2ccccc2)C1 (stereo not given) | inconclusive: 11.7 µM [inhibitor, single point] | –
70 | CCOC(=O)c1sc(NC(=O)CSC(=S)N2CCN(C)CC2)nc1C | inconclusive: 4.65 µM [inhibitor, partial curve] | –

Ordered by number of heavy atoms (descending): 5 of the compounds above.
Row | SMILES | Potency | activity change, negative = inhibition
68 | COC(=O)C1=CN(c2cccc(C)c2)C=C(C(=O)OC)C1c1cc(OC)c(O)c([N+](=O)[O-])c1 | inconclusive: 18.5 µM [inhibitor, single point] | –
13 | COc1ccc(-n2nnc3c(=O)n(CC(=O)N4CCCc5ccccc54)cnc32)cc1 | inconclusive: 11.7 µM [inhibitor, single point] | –
69 | O=C1CCCCN1CCCC(=O)N1CCCC(Nc2ccccc2)C1 (stereo not given) | inconclusive: 11.7 µM [inhibitor, single point] | –
8 | CC1CCN(CC(=O)Nc2ccc(N3CCCCCC3)cc2)CC1 | inconclusive: 1.85 µM [inhibitor, full curve, poor fit] | –
42 | CN1C(=O)N(C)C(=O)C2(Cc3ccccc3N3CCCC32)C1=O (stereo not given) | – | inactive: 0.226%
